# According to patent US20260063641A1, “COMPOSITIONS AND METHODS FOR LABELING AND DETECTING BINDING PARTNERS” (UNIVERSITY OF UTAH RESEARCH FOUNDATION, priority 2022, published 2026):
# Test system: BRD2, BRD3 and BRD4 (BET proteins) and interactors
# Test: BioTAC proximity labeling with label-free mass spectrometry-based proteomics of streptavidin-enriched biotinylated proteins
# Assay type: cell-based
# Experimental: Having determined that the BioTAC system could identify BRD4 as a (+)-JQ1 target in focused screens, it was evaluated as an unbiased target-ID method. To identify direct binders of (+)-JQ1 proteome-wide, BioTAC proximity labelling experiments were performed as described above, followed by label-free mass spectrometry-based proteomic analysis of biotinylated proteins enriched following a 30 minute treatment with 100 μM biotin plus DMSO or 1 μM Cpd1, and then 1 μM Cpd1 off-competed by pre-treatment with 10 μM free (+)-JQ1.
# Having established conditions for determining the primary targets of small molecules using the BioTAC system, its utility in reading out the interactome sphere of (+)-JQ1 bound BET-proteins was next investigated. […] To quantitively evaluate the ability of the BioTAC system to successfully enrich the known interactome of (+)-JQ1 bound BET proteins, time course BioTAC proximity labelling experiments were performed at the 1 h and 4 h time points, and evaluated streptavidin-enriched biotinylated proteins using mass spectrometry-based proteomic analysis (FIG. 2A-C, FIG. 6). […]
# 9 million HEK293 cells were plated into 15 cm dishes containing 12 mL of complete media (DMEM, 10% FBS, 1% pen/strep) and incubated overnight. […] Lysates were clarified by centrifuging at 16,000×g for 10 min and protein concentration determined by BCA assay. […]
smiles,measurement,setting,value
"CC[C@H](C(=O)N1CCCC[C@H]1C(=O)O[C@H](CCc1ccc(OC)c(OC)c1)c1ccccc1OCC(=O)NCCOCCOCCOCCNC(=O)C[C@@H]1N=C(c2ccc(Cl)cc2)c2c(sc(C)c2C)-n2c(C)nnc21)c1cc(OC)c(OC)c(OC)c1 [Cpd1, (R)-1-(2-((17-((S)-4-(4-Chlorophenyl)-2,3,9-trimethyl-6H-thieno[3,2-f][1,2,4]triazolo[4,3-a][1,4]diazepin-6-yl)-2,16-dioxo-6,9,12-trioxa-3,15-diazaheptadecyl)oxy)phenyl)-3-(3,4-dimethoxyphenyl)propyl (S)-1-((S)-2-(3,4,5-trimethoxyphenyl)butanoyl)piperidine-2-carboxylate]",share of statistically significant enriched and (+)-JQ1 rescued hits also present in the Lambert dataset,4 hr timepoint hits,60%
same,"percent enrichment of reference interactors in hits vs 4,000 random protein sets","4 hr timepoint, away from mean of random chance",> 7 standard deviations
